Reference: PubChem BioAssay AID686943 (Drosophila RNAi Screening Center, 2013)
The screen tested about 23,000 reagents; below is a random part of those with a known target gene and a result. 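Extra replicates exist only for a retested subset of genes; insulin dose and duration not given; both raised and lowered dpERK matter.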 Reagents against one gene are numbered here. Names joined by + are all predicted targets of the reagent. Not all columns of the deposit are shown. Reagent sequences are not shown. The record does not give: the amount of reagent, the time to read-out.

Assay: 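Knockdowns that increase or decrease active ERK after insulin receptor stimulation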 (primary screen)
Cell system: Drosophila S2R+ haemocyte-like cells expressing YFP-tagged ERK (Rolled)
Reagents: long dsRNA against Drosophila genes
Conditions: insulin stimulation versus unstimulated cells; dose and duration not given
Measured: 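Antibody staining for doubly phosphorylated ERK divided by ERK-YFP signal, as plate z-scores, in insulin-treated and untreated cells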
Scale: replicate 1, z-score of dpERK with insulin and replicate 2, z-score of dpERK with insulin: higher = more active ERK per ERK-YFP after insulin; replicate 1, z-score of dpERK under basal conditions: higher = more basal active ERK per ERK-YFP

| predicted target | dsRNA no. | replicate 1, z-score of dpERK with insulin | replicate 2, z-score of dpERK with insulin | replicate 1, z-score of dpERK under basal conditions |
| --- | --- | --- | --- | --- |
| lncRNA:CR43302 | 1 | -4.26 | -3.53 | -0.12 |
| CG11106 | 1 | -0.05 | -0.09 | 0.89 |
| CG32281 | 1 | 0.02 | -0.92 | 0.43 |
| Alms1b + Alms1a | 1 | 0.03 | 0.18 | -0.1 |
| CG17528 | 1 | -0.18 | 0.44 | 0.81 |
| Sox102F | 1 | 0.48 | 0.08 | -0.38 |
| CG8369 | 1 | -0.43 | -0.24 | -0.1 |
| rnh1 | 1 | -0.68 | 0.35 | 0.42 |
| Chrac-16 | 1 | 0 | 1.56 | 0.86 |
| peng | 1 | -0.49 | -0.16 | -0.98 |
| DCP1 | 1 | 0.25 | 0.85 | 0.15 |
| Dh31-R | 1 | -0.27 | 0.23 | -0.09 |
| Dh31-R | 2 | -0.59 | 0.51 | -0.95 |
| Teh4 | 1 | 0.23 | -0.17 | 2.23 |
| CG32820 + CG17450 + CG32819 | 1 | -0.29 | -2.36 | 0.55 |
| CG32820 + CG17450 + CG32819 | 2 | -0.49 | -0.06 | -0.71 |
| Strip | 1 | 0.73 | 0.16 | -0.86 |
| Mst98Cb | 1 | -0.17 | 0.41 | -0.26 |
| Mst98Cb | 2 | -0.15 | -0.45 | -0.86 |
| smog | 1 | 0.93 | 0.3 | 1.25 |
| smog | 2 | -3.35 | -3.33 | -1.76 |
| sr | 1 | 0.69 | 0.5 | -0.23 |
| sr | 2 | -1.67 | -4.69 | -1.65 |

Laid out differently: 3 of the entries above
predicted target	dsRNA no.	replicate 1, z-score of dpERK with insulin	replicate 2, z-score of dpERK with insulin	replicate 1, z-score of dpERK under basal conditions
Sox102F	1	0.48	0.08	-0.38
CG8369	1	-0.43	-0.24	-0.1
rnh1	1	-0.68	0.35	0.42
